Laboratory results: article doi:10.1101/2020.10.07.329979
No constants are given. Whether binding was seen depends on the method and setting. In cells and extracts the contact can be indirect. Some results given as binding are weak or reduced against the parent protein; the word gives no strength. Tags and fused reporters may be left off the sequences shown.

Assays:
[1] = target: T1, FBN2 fused to the N-terminal half of YFP (Arabidopsis thaliana) (UniProt O82291); test: split reporter
T1 sequence: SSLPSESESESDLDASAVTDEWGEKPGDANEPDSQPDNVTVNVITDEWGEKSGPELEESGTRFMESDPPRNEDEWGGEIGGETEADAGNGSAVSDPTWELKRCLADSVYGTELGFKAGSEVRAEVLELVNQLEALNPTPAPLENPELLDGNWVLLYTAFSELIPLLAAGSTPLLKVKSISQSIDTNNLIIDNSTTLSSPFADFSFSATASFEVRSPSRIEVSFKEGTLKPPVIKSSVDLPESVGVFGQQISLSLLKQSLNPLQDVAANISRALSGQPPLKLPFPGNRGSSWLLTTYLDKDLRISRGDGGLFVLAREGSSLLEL

[2] = target: T2, FBN1a fused to the N-terminal half of YFP (Arabidopsis thaliana) (UniProt O81439); test: split reporter
T2 sequence: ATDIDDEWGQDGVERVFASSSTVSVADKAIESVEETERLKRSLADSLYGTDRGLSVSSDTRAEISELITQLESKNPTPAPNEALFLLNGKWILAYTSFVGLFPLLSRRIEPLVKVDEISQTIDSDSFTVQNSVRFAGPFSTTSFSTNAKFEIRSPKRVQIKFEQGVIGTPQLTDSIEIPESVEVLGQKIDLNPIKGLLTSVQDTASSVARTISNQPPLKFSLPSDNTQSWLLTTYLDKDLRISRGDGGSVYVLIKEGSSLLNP

| Binder | binding [1] | binding [2] |
| --- | --- | --- |
| FBN1a fused to the C-terminal moiety of CFP (protein, UniProt O81439 56-318) ATDIDDEWGQDGVERVFASSSTVSVADKAIESVEETERLKRSLADSLYGTDRGLSVSSDTRAEISELITQLESKNPTPAPNEALFLLNGKWILAYTSFVGLFPLLSRRIEPLVKVDEISQTIDSDSFTVQNSVRFAGPFSTTSFSTNAKFEIRSPKRVQIKFEQGVIGTPQLTDSIEIPESVEVLGQKIDLNPIKGLLTSVQDTASSVARTISNQPPLKFSLPSDNTQSWLLTTYLDKDLRISRGDGGSVYVLIKEGSSLLNP | binds | – |
| FBN2 fused to the N-terminal half of YFP (protein, UniProt O82291 54-376) SSLPSESESESDLDASAVTDEWGEKPGDANEPDSQPDNVTVNVITDEWGEKSGPELEESGTRFMESDPPRNEDEWGGEIGGETEADAGNGSAVSDPTWELKRCLADSVYGTELGFKAGSEVRAEVLELVNQLEALNPTPAPLENPELLDGNWVLLYTAFSELIPLLAAGSTPLLKVKSISQSIDTNNLIIDNSTTLSSPFADFSFSATASFEVRSPSRIEVSFKEGTLKPPVIKSSVDLPESVGVFGQQISLSLLKQSLNPLQDVAANISRALSGQPPLKLPFPGNRGSSWLLTTYLDKDLRISRGDGGLFVLAREGSSLLEL | binds | – |
| AOS fused to the C-terminal moiety of CFP (enzyme, UniProt Q96242 34-518) SGSETPDLTVATRTGSKDLPIRNIPGNYGLPIVGPIKDRWDYFYDQGAEEFFKSRIRKYNSTVYRVNMPPGAFIAENPQVVALLDGKSFPVLFDVDKVEKKDLFTGTYMPSTELTGGYRILSYLDPSEPKHEKLKNLLFFLLKSSRNRIFPEFQATYSELFDSLEKELSLKGKADFGGSSDGTAFNFLARAFYGTNPADTKLKADAPGLITKWVLFNLHPLLSIGLPRVIEEPLIHTFSLPPALVKSDYQRLYEFFLESAGEILVEADKLGISREEATHNLLFATCFNTWGGMKILFPNMVKRIGRAGHQVHNRLAEEIRSVIKSNGGELTMGAIEKMELTKSVVYECLRFEPPVTAQYGRAKKDLVIESHDAAFKVKAGEMLYGYQPLATRDPKIFDRADEFVPERFVGEEGEKLLRHVLWSNGPETETPTVGNKQCAGKDFVVLVARLFVIEIFRRYDSFDIEVGTSPLGSSVNFSSLRKASF | binds | binds |
